The list shows a part of the results. Repeats are few or missing, and single values can be far off.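 Imaging used 1,536-well plates; nuclei positive for cleaved PARP by antibody were divided by total DNA-stained nuclei to yield the apoptosis fraction. Doses for screening kept most cells viable, and cell lines differ markedly in resting and induced cleaved-PARP levels.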
Legend:
Experiment in all cases: cleaved PARP positive nuclei fraction relative to DMSO control; melanoma cells; higher = more apoptosis
Settings in all cases: library dose: low library concentration; 72 h
MZ2-MEL = tested on: MZ2-MEL
MeWo = tested on: MeWo
RPMI7951 = tested on: RPMI7951
RVH-421 = tested on: RVH-421
SkMel28 = tested on: SkMel28
SkMel2 = tested on: SkMel2
SkMel30 = tested on: SkMel30
UACC62 = tested on: UACC62

Row | SMILES | cleaved PARP positive nuclei fraction (MZ2-MEL) [%] | cleaved PARP positive nuclei fraction (MeWo) [%] | cleaved PARP positive nuclei fraction (RPMI7951) [%] | cleaved PARP positive nuclei fraction (RVH-421) [%] | cleaved PARP positive nuclei fraction (SkMel28) [%] | cleaved PARP positive nuclei fraction (SkMel2) [%] | cleaved PARP positive nuclei fraction (SkMel30) [%] | cleaved PARP positive nuclei fraction (UACC62) [%]
1 | COc1ccc(C2=N[C@@H](c3ccc(Cl)cc3)[C@@H](c3ccc(Cl)cc3)N2C(=O)N2CCNC(=O)C2)c(OC(C)C)c1 [Nutlin-3] + C#Cc1cccc(Nc2ncnc3cc(OCCOC)c(OCCOC)cc23)c1 [erlotinib] (first compound 0.1 µM, partner dose 0.8 µM) | 173 | 62.6 | 66.5 | 58.8 | 119 | 97.7 | 103 | 44.2
2 | CC1(C)CCC(c2ccc(Cl)cc2)=C(CN2CCN(c3ccc(C(=O)NS(=O)(=O)c4ccc(N[C@H](CCN5CCOCC5)CSc5ccccc5)c(S(=O)(=O)C(F)(F)F)c4)cc3)CC2)C1 + C[C@]1(c2nc3c(C(N)=O)cccc3[nH]2)CCCN1 [Veliparib] (first compound 0.4 µM, partner dose 1.4 µM) | 323 | 378 | 203 | 329 | 95.5 | 266 | 250 | 97.9
3 | CS(=O)(=O)c1ccc(C(=O)Nc2ccc(Cl)c(-c3ccccn3)c2)c(Cl)c1 [vismodegib] + NC1(c2ccc(-c3nc4ccn5c(=O)[nH]nc5c4cc3-c3ccccc3)cc2)CCC1 [MK2206] (first compound 1 µM, partner dose 0.4 µM) | 62.5 | 143 | 95.6 | 146 | 95.8 | 88.3 | 260 | 209
4 | C[C@@H](N)c1ccc(C(=O)Nc2ccnc3[nH]ccc23)cc1 + Nc1ccn([C@@H]2O[C@H](CO)[C@@H](O)C2(F)F)c(=O)n1 [gemcitabine] (first compound 0.4 µM, partner dose 0.0004 µM) | 151 | 257 | 102 | 181 | 117 | 133 | 70.8 | 38.5
5 | Cn1cnc2c(F)c(Nc3ccc(Br)cc3Cl)c(C(=O)NOCCO)cc21 [selumetinib] + Nc1cccc2c1CN(C1CCC(=O)NC1=O)C2=O [lenalidomide] (first compound 0.015 µM, partner dose 1 µM) | 290 | 108 | 120 | 121 | 161 | 109 | 240 | 131
6 | CCCCCCCCc1ccc(CCC(N)(CO)CO)cc1 [fingolimod] + C#Cc1cccc(Nc2ncnc3cc(OCCOC)c(OCCOC)cc23)c1 [erlotinib] (first compound 2 µM, partner dose 0.8 µM) | 51.4 | 142 | 71 | 99.6 | 81.7 | 53.7 | 22.4 | 191
7 | Cn1cnc2c(F)c(Nc3ccc(Br)cc3Cl)c(C(=O)NOCCO)cc21 [selumetinib] + Cn1sc(=O)n(Cc2ccccc2)c1=O [TDZD-8] (first compound 0.015 µM, partner dose 0.4 µM) | 187 | 62.1 | 151 | 53.6 | 99.2 | 136 | 87.4 | 144
8 | C[C@@H](N)c1ccc(C(=O)Nc2ccnc3[nH]ccc23)cc1 + C#Cc1cccc(Nc2ncnc3cc(OCCOC)c(OCCOC)cc23)c1 [erlotinib] (first compound 0.4 µM, partner dose 0.8 µM) | 121 | 206 | 324 | 72.3 | 103 | 127 | 124 | 138
9 | CCCCCCCCc1ccc(CCC(N)(CO)CO)cc1 [fingolimod] + Nc1ncn([C@H]2C[C@H](O)[C@@H](CO)O2)c(=O)n1 [decitabine] (first compound 2 µM, partner dose 0.1 µM) | 37.1 | 142 | 172 | 40.4 | 108 | 146 | 86 | 184
10 | CC1(C)CCC(c2ccc(Cl)cc2)=C(CN2CCN(c3ccc(C(=O)NS(=O)(=O)c4ccc(N[C@H](CCN5CCOCC5)CSc5ccccc5)c(S(=O)(=O)C(F)(F)F)c4)cc3)CC2)C1 + CC(=O)c1c(C)c2cnc(Nc3ccc(N4CCNCC4)cn3)nc2n(C2CCCC2)c1=O [palbociclib] (first compound 0.4 µM, partner dose 0.04 µM) | 247 | 65 | 200 | 55.3 | 128 | 51.1 | 297 | 138
11 | Cn1sc(=O)n(Cc2ccccc2)c1=O + Nc1cccc2c1CN(C1CCC(=O)NC1=O)C2=O [lenalidomide] (first compound 0.4 µM, partner dose 1 µM) | 167 | 18.2 | 103 | 128 | 69.2 | 127 | 23.5 | 117
12 | CCN(CC)CCNC(=O)c1c(C)[nH]c(/C=C2\C(=O)Nc3ccc(F)cc32)c1C [sunitinib] + CCCS(=O)(=O)Nc1ccc(F)c(C(=O)c2c[nH]c3ncc(Cl)cc23)c1F [PLX4720] (first compound 0.4 µM, partner dose 0.08 µM) | 35.8 | 40.8 | 48.2 | 137 | 92.5 | 66.3 | 256 | 466
13 | C[C@@H](N)c1ccc(C(=O)Nc2ccnc3[nH]ccc23)cc1 + CC(=O)O[C@@]12CO[C@@H]1C[C@H](O)[C@@]1(C)C(=O)[C@H](O)C3=C(C)[C@@H](OC(=O)[C@H](O)[C@@H](NC(=O)OC(C)(C)C)c4ccccc4)C[C@@](O)([C@@H](OC(=O)c4ccccc4)[C@H]21)C3(C)C [Docetaxel] (first compound 0.4 µM, partner dose 0.0001 µM) | 1410 | 409 | 131 | 398 | 453 | 916 | 242 | 472
14 | Cn1cnc2c(F)c(Nc3ccc(Br)cc3Cl)c(C(=O)NOCCO)cc21 [selumetinib] + Clc1ccc(Nc2nnc(Cc3ccncc3)c3ccccc23)cc1 [vatalanib] (first compound 0.015 µM, partner dose 2 µM) | 351 | 204 | 81 | 145 | 42.6 | 132 | 46.5 | 229
15 | CS(=O)(=O)c1ccc(C(=O)Nc2ccc(Cl)c(-c3ccccn3)c2)c(Cl)c1 [vismodegib] + CS(=O)(=O)CCNCc1ccc(-c2ccc3ncnc(Nc4ccc(OCc5cccc(F)c5)c(Cl)c4)c3c2)o1 [lapatinib] (first compound 1 µM, partner dose 0.8 µM) | 88.9 | 106 | 164 | 172 | 207 | 40.8 | 53.9 | 26.4
16 | Cn1cnc2c(F)c(Nc3ccc(Br)cc3Cl)c(C(=O)NOCCO)cc21 [selumetinib] + Cn1c(Nc2ccc(C(F)(F)F)cc2)nc2cc(Oc3ccnc(-c4ncc(C(F)(F)F)[nH]4)c3)ccc21 [CHIR265] (first compound 0.015 µM, partner dose 0.08 µM) | 38.6 | 156 | 131 | 209 | 686 | 450 | 182 | 209
17 | CN(c1ncccc1CNc1nc(Nc2ccc3c(c2)CC(=O)N3)ncc1C(F)(F)F)S(C)(=O)=O + C=CCNC1=C2C[C@@H](C)C[C@H](OC)[C@H](O)[C@@H](C)/C=C(\C)[C@H](OC(N)=O)[C@@H](OC)/C=C\C=C(/C)C(=O)NC(=CC1=O)C2=O [Tanespimycin] (first compound 0.08 µM, partner dose 0.002 µM) | 55.9 | 93.7 | 168 | 122 | 123 | 147 | 22.5 | 113
18 | C[C@]1(O)C[C@@H](c2nc(-c3ccc4ccc(-c5ccccc5)nc4c3)c3c(N)nccn32)C1 + COCC[n+]1c2c(n(Cc3cnccn3)c1C)C(=O)c1ccccc1C2=O [YM155] (first compound 0.4 µM, partner dose 0.0004 µM) | 95.8 | 93.9 | 170 | 83.3 | 80.4 | 36.9 | 141 | 147
19 | CN(c1ncccc1CNc1nc(Nc2ccc3c(c2)CC(=O)N3)ncc1C(F)(F)F)S(C)(=O)=O + Nc1ncn([C@H]2C[C@H](O)[C@@H](CO)O2)c(=O)n1 [decitabine] (first compound 0.08 µM, partner dose 0.1 µM) | 66.5 | 77.4 | 55.6 | 158 | 78.2 | 175 | 69 | 60.3
20 | CCN(CC)CCNC(=O)c1c(C)[nH]c(/C=C2\C(=O)Nc3ccc(F)cc32)c1C [sunitinib] + Cn1c(=O)n(-c2ccc(C(C)(C)C#N)cc2)c2c3cc(-c4cnc5ccccc5c4)ccc3ncc21 [NVP-BEZ235] (first compound 0.4 µM, partner dose 0.004 µM) | 99.5 | 179 | 74.5 | 55.5 | 258 | 96.1 | 86.5 | 534
21 | Cn1cnc2c(F)c(Nc3ccc(Br)cc3Cl)c(C(=O)NOCCO)cc21 [selumetinib] + COc1ccc(Cl)c(Nc2nc3ccccc3nc2NS(=O)(=O)c2cccc(NC(=O)C(C)(C)N)c2)c1 [XL147] (first compound 0.015 µM, partner dose 0.8 µM) | 158 | 95.1 | 27.2 | 63.1 | 358 | 78.1 | 60.5 | 367
22 | CS(=O)(=O)c1ccc(C(=O)Nc2ccc(Cl)c(-c3ccccn3)c2)c(Cl)c1 [vismodegib] + Nc1ncn([C@H]2C[C@H](O)[C@@H](CO)O2)c(=O)n1 [decitabine] (first compound 1 µM, partner dose 0.1 µM) | 274 | 122 | 174 | 198 | 90.8 | 183 | 75.8 | 147

Two records drawn at random from the list so far, as already listed:
Row | SMILES | cleaved PARP positive nuclei fraction (MZ2-MEL) [%] | cleaved PARP positive nuclei fraction (MeWo) [%] | cleaved PARP positive nuclei fraction (RPMI7951) [%] | cleaved PARP positive nuclei fraction (RVH-421) [%] | cleaved PARP positive nuclei fraction (SkMel28) [%] | cleaved PARP positive nuclei fraction (SkMel2) [%] | cleaved PARP positive nuclei fraction (SkMel30) [%] | cleaved PARP positive nuclei fraction (UACC62) [%]
11 | Cn1sc(=O)n(Cc2ccccc2)c1=O + Nc1cccc2c1CN(C1CCC(=O)NC1=O)C2=O [lenalidomide] (first compound 0.4 µM, partner dose 1 µM) | 167 | 18.2 | 103 | 128 | 69.2 | 127 | 23.5 | 117
9 | CCCCCCCCc1ccc(CCC(N)(CO)CO)cc1 [fingolimod] + Nc1ncn([C@H]2C[C@H](O)[C@@H](CO)O2)c(=O)n1 [decitabine] (first compound 2 µM, partner dose 0.1 µM) | 37.1 | 142 | 172 | 40.4 | 108 | 146 | 86 | 184

Reference: the supplement of paper PMC4604168 (melanoma cell lines)
